According to patent US20130184337A1, “SODIUM ASCORBATE STIMULATION OF ELASTOGENESIS” (THE HOSPITAL FOR SICK CHILDREN, priority 2012, published 2013):
For at least one compound, name, drawing or mass did not settle the structure.

Tested on: normal dermal fibroblasts
Assay: Elastic fiber deposition (immuno-staining morphometry, [3H]-valine insoluble elastin) in monolayer cultures
Assay type: cell-based, human
Method: Cell Cultures—Fibroblasts initially grew out from the explants of these full thickness skin biopsies and were maintained. The primary cultures of fat-derived fibroblasts obtained from Thermogenesis (Rancho Cordova, Calif.) were also tested. In all described experiments, 2-4 passages of both kinds of fibroblasts were used. In experiments aimed at assessing ECM production, cells were initially plated at a concentration of 100,000 cells/dish.
Immuno-staining—All cultures maintained in the presence and absence of indicated reagents were either fixed in cold 100% methanol at −20° C. (for detection of elastin) or in 4% paraformaldehyde at room temperature (for detection of collagen I). The multiple parallel cultures were then incubated with 10 μg/ml of polyclonal antibody to tropoelastin (Elastin Products, Owensville, Mich.), or polyclonal antibody to collagen type I (Chemicon, Temecula, Calif.). […] All of the cultures were then examined with a Nikon Eclipse E1000 microscope attached to a cooled CCD camera (QImaging, Retiga EX) and analyzed by the computer-generated morphometric analysis system (Image-Pro Plus software, Media Cybernetics, Silver Springs, Md.) as previously described.
Quantitative Assays of Insoluble Elastin—Fibroblasts were grown to confluency in 35-mm culture dishes (100,000 cells/dish). […]

Row | SMILES | elastogenic effects of 100 μM SA after pre-treatment with the inhibitor (mRNA, tropoelastin, insoluble elastin, elastic fibers) (inhibitor pre-incubation then 100 μM SA, 5% FBS, probenecid 400 μM) | elastogenesis (1 μM dexamethasone)
1 | O=c1cc(N2CCOCC2)oc2c(-c3ccccc3)cccc12 [LY294002, reference compound] | eliminated elastogenic effects of 100 μM SA | –
2 | C[C@@H]1C[C@H]2[C@@H]3CCC4=CC(=O)C=C[C@]4(C)[C@@]3(F)[C@@H](O)C[C@]2(C)[C@@]1(O)C(=O)CO [dexamethasone, reference compound] | – | increase in elastogenesis
